In PMC5096685, “Characterization of CgHIFα-Like, a Novel bHLH-PAS Transcription Factor Family Member, and Its Role under Hypoxia Stress in the Pacific Oyster Crassostrea gigas”:
A negative result means that nothing was seen under these conditions. At least one verdict was read from the data and is not stated in words by the source. Tags and fusion partners may be left off the protein sequences shown.

Target: T1, CgHIFα bHLH-PAS (Crassostrea gigas) (UniProt B6ZGN4)
T1 sequence (looked up, limits assumed): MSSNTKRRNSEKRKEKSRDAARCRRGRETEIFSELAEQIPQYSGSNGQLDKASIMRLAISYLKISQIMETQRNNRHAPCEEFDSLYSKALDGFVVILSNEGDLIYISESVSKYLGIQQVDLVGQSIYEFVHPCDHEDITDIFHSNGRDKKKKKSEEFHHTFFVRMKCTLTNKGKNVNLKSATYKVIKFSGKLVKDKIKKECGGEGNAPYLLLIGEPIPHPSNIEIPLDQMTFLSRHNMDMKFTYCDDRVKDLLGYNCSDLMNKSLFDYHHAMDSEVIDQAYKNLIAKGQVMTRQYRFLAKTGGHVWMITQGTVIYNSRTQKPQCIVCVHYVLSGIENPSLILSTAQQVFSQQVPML
Assay: competition with a labelled probe
Details: 200-fold excess Em vs biotin-Ew; 10 mM Tris pH 7.5, 50 mM KCl, 1 mM DTT, 50 ng poly(dI-dC) in 20 uL, 20 min at room temperature; recombinant protein; protein details: His (pET30a); label: none (competitor)

**Q.** Does “GCCCTAAAAGCTGTCTCA (double strand) [Em (mutant HRE)]” bind?
**A.** no binding
